PubChem BioAssay AID686943, Drosophila RNAi Screening Center, 2013

Aim: 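Search across the genome for regulators of signalling from receptor tyrosine kinase to ERK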 (primary screen)
Cells: Drosophila S2R+ haemocyte-like cells expressing YFP-tagged ERK (Rolled)
Reagent: long dsRNA against Drosophila genes
Conditions: insulin stimulation versus unstimulated cells; dose and duration not given
Read-out: 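Per-plate z-scores of phospho-ERK immunostaining normalised to YFP-tagged ERK, measured with and without insulin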
Scale: replicate 1, z-score of dpERK with insulin: higher = more active ERK per ERK-YFP after insulin
In all, the deposit lists about 23,000 reagents; shown is a random part of those with a known target gene and a result. 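Extra replicates exist only for a retested subset of genes; insulin dose and duration not given; both raised and lowered dpERK matter.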 Names joined by + are all predicted targets of the reagent. Further read-outs or replicates are left out here. Not stated in the record: the amount of reagent, the time to read-out.

replicate 1, z-score of dpERK with insulin, by target gene and reagent
CG6503: DRSC16056 0.41
CG14219: DRSC19576 0.49
Pgam5 (Phosphoglycerate mutase 5): DRSC18551 0.7
ND-20 (NADH dehydrogenase (ubiquinone) 20 kDa subunit): DRSC20164 -0.01
CG30183: DRSC04450 0.24; DRSC04472 -0.01
CG13992: DRSC02324 0.61
CG14006: DRSC02338 0.62
CG7275: DRSC10796 -0.33
CG1024: DRSC12496 -0.39
crb (crumbs): DRSC16927 -0.23
CG31612: DRSC03697 0.84; DRSC03698 0.41
CG13102: DRSC02202 1.33
or (orange): DRSC04329 1.25
CG12531: DRSC19466 1.12
eIF4H2 (eukaryotic translation initiation factor 4H2): DRSC14582 0.33
CG6980: DRSC16162 0.36
CG11885: DRSC00329 -0.26
CG31517: DRSC13010 -0.18
Lsp1beta (Larval serum protein 1 beta): DRSC00757 0.23
CG6834: DRSC16125 0.27
CG4042: DRSC11751 0.28
CG11382: DRSC18624 0.51
MED22 (Mediator complex subunit 22): DRSC18175 1.92
PICK1 (Protein interacting with C kinase 1): DRSC01268 0.1; DRSC02936 -0.36
SPE (Spatzle-Processing Enzyme): DRSC15135 -0.78
CG7611: DRSC11840 -1.13
Rab9Fb (Rab at 9Fb): DRSC19854 -0.18
ssp5 (short spindle 5): DRSC14955 0.96
CG33465: DRSC05587 -0.15
CG13066: DRSC09949 0.06
mop (myopic): DRSC11065 -0.04
Jheh1 (Juvenile hormone epoxide hydrolase 1): DRSC06529 -2.28
Sec24AB (Secretory 24AB): DRSC06478 0.57
Iru (Iruka): DRSC14457 0.48
CG1620: DRSC06603 -0.68
CG14391: DRSC14850 -0.12
kairos: DRSC19972 0.47
CG8079: DRSC07070 -0.01; DRSC07071 0.04
Cpr76Bd (Cuticular protein 76Bd): DRSC11063 -0.3
tinc (tincar): DRSC14798 0.22; DRSC14799 0.61; DRSC16308 -1.88; DRSC16309 -0.17
Plzf (Promyelocytic leukemia zinc finger): DRSC02994 1.54
TMEM216 + CG11760: DRSC14375 -0.29
Gbs-76A (Glycogen binding subunit 76A): DRSC11081 -0.49
CG13062: DRSC09945 0.1
CG33500: DRSC09115 -2.21
CG6912: DRSC16132 0.55
CG34057: DRSC08375 -0.28
Coq2 (Coenzyme Q biosynthesis protein 2): DRSC16516 0.95; DRSC21366 -0.33
CG32214: DRSC09613 0.68
